At least one compound was matched to its structure with a doubt left.
Test system: Sp1, Sp3, and Sp4 proteins
Assay: Western blot of Sp1, Sp3 and Sp4 protein expression in Panc-1 cells
Type: cell-based
Conditions: 50 μM, 48 hr, vs DMSO

In the case of `Cc1ccc(-c2cc(C(F)(F)F)nn2-c2ccc(S(N)(=O)=O)cc2)cc1` [celecoxib], the “Sp1, Sp3, and Sp4 protein expression” value is reported as “decreased the levels of Sp1 and Sp4”.
